Over roughly 1,900 compounds, “excess over highest single agent (ExcessHSA) synergy score, 6x6 matrix” has its median near -83; the lowest 2% begin near -370. The list shows a part of the results.
Test system: NCI-H446
Test: excess over highest single agent (ExcessHSA) synergy score, 6x6 matrix; higher = less synergy (more negative = stronger synergy)
Conditions: 72 h; CellTiter-Glo viability

SMILES | excess over highest single agent
CC/C(=C(\c1ccccc1)c1ccc(OCCN(C)C)cc1)c1ccccc1 + Cc1sc2c(c1C)C(c1ccc(Cl)cc1)=N[C@@H](CC(=O)OC(C)(C)C)c1nnc(C)n1-2 [NCGC00250412-19] | -272
Cc1nn(Cc2ccccc2Cl)c(C)c1CN(C)CC(O)COc1ccc(Cl)cc1 (centres undefined) + Cc1sc2c(c1C)C(c1ccc(Cl)cc1)=N[C@@H](CC(=O)OC(C)(C)C)c1nnc(C)n1-2 [NCGC00250412-19] | -95.8
O=c1c(O)c(-c2ccc(O)c(O)c2)oc2cc(O)cc(O)c12 + Cc1sc2c(c1C)C(c1ccc(Cl)cc1)=N[C@@H](CC(=O)OC(C)(C)C)c1nnc(C)n1-2 [NCGC00250412-19] | -264
CCOC(=O)C1=C(O)C(=O)N(Cc2ccccc2)C1 + Cc1sc2c(c1C)C(c1ccc(Cl)cc1)=N[C@@H](CC(=O)OC(C)(C)C)c1nnc(C)n1-2 [NCGC00250412-19] | -90.7
O=C(c1cncc(Br)c1)N1CCC(N2CCCC2)CC1 + Cc1sc2c(c1C)C(c1ccc(Cl)cc1)=N[C@@H](CC(=O)OC(C)(C)C)c1nnc(C)n1-2 [NCGC00250412-19] | -123
Cc1cnc(C(=O)O)c[n+]1[O-] + Cc1sc2c(c1C)C(c1ccc(Cl)cc1)=N[C@@H](CC(=O)OC(C)(C)C)c1nnc(C)n1-2 [NCGC00250412-19] | -118
O=C(O)C1(C(=O)O)CCC1.[NH2-].[NH2-].[Pt+2] + Cc1sc2c(c1C)C(c1ccc(Cl)cc1)=N[C@@H](CC(=O)OC(C)(C)C)c1nnc(C)n1-2 [NCGC00250412-19] | -79.9
Cc1cccc(-c2nn(C(=S)Nc3ccccc3)cc2-c2ccnc3ccccc23)n1 + Cc1sc2c(c1C)C(c1ccc(Cl)cc1)=N[C@@H](CC(=O)OC(C)(C)C)c1nnc(C)n1-2 [NCGC00250412-19] | 108
Nc1nc2[nH]cc(CCc3ccc(C(=O)N[C@@H](CCC(=O)O)C(=O)O)cc3)c2c(=O)[nH]1 + Cc1sc2c(c1C)C(c1ccc(Cl)cc1)=N[C@@H](CC(=O)OC(C)(C)C)c1nnc(C)n1-2 [NCGC00250412-19] | 29.8
CC(C)Cc1ccc(C(C)C(=O)O)cc1 (centres undefined) + Cc1sc2c(c1C)C(c1ccc(Cl)cc1)=N[C@@H](CC(=O)OC(C)(C)C)c1nnc(C)n1-2 [NCGC00250412-19] | -85.8
CCOC(=O)Nc1ccc(NCc2ccc(F)cc2)nc1N + Cc1sc2c(c1C)C(c1ccc(Cl)cc1)=N[C@@H](CC(=O)OC(C)(C)C)c1nnc(C)n1-2 [NCGC00250412-19] | -130
COc1ccc(C(CN(C)C)C2(O)CCCCC2)cc1 (centres undefined) + Cc1sc2c(c1C)C(c1ccc(Cl)cc1)=N[C@@H](CC(=O)OC(C)(C)C)c1nnc(C)n1-2 [NCGC00250412-19] | 67.3
CC1COc2c(N3CCN(C)CC3)c(F)cc3c(=O)c(C(=O)O)cn1c23 (centres undefined) + Cc1sc2c(c1C)C(c1ccc(Cl)cc1)=N[C@@H](CC(=O)OC(C)(C)C)c1nnc(C)n1-2 [NCGC00250412-19] | -88.4
CC(=O)SCC(Cc1ccccc1)C(=O)NCC(=O)OCc1ccccc1 (centres undefined) + Cc1sc2c(c1C)C(c1ccc(Cl)cc1)=N[C@@H](CC(=O)OC(C)(C)C)c1nnc(C)n1-2 [NCGC00250412-19] | 18.4
O=C(Oc1ccc([N+](=O)[O-])cc1)N1CCN(Cc2cccc(Oc3ccccc3)c2)CC1 + Cc1sc2c(c1C)C(c1ccc(Cl)cc1)=N[C@@H](CC(=O)OC(C)(C)C)c1nnc(C)n1-2 [NCGC00250412-19] | -256
Cn1c(Nc2ccc(C(F)(F)F)cc2)nc2cc(Oc3ccnc(-c4ncc(C(F)(F)F)[nH]4)c3)ccc21 + Cc1sc2c(c1C)C(c1ccc(Cl)cc1)=N[C@@H](CC(=O)OC(C)(C)C)c1nnc(C)n1-2 [NCGC00250412-19] | -155
COc1cc(Oc2ccnc3cc(OC)c(OC)cc23)ccc1NC(=O)NC(C)c1nccs1 (centres undefined) + Cc1sc2c(c1C)C(c1ccc(Cl)cc1)=N[C@@H](CC(=O)OC(C)(C)C)c1nnc(C)n1-2 [NCGC00250412-19] | -83.5
COC(=O)C1=C(C)NC(C)=C(C(=O)OC(C)C)C1c1cccc2nonc12 (centres undefined) + Cc1sc2c(c1C)C(c1ccc(Cl)cc1)=N[C@@H](CC(=O)OC(C)(C)C)c1nnc(C)n1-2 [NCGC00250412-19] | -199
CCN1C[C@]2(OC(=O)c3ccccc3NC(C)=O)CC[C@H](OC)[C@@]34[C@H]5C[C@@H]6[C@@H](OC)C[C@](O)([C@@H](C[C@@H]23)[C@@H]14)[C@@]5(O)[C@@H]6OC + Cc1sc2c(c1C)C(c1ccc(Cl)cc1)=N[C@@H](CC(=O)OC(C)(C)C)c1nnc(C)n1-2 [NCGC00250412-19] | -150
CC1(C)CCC2=C(O1)c1ccccc1C(=O)C2=O + Cc1sc2c(c1C)C(c1ccc(Cl)cc1)=N[C@@H](CC(=O)OC(C)(C)C)c1nnc(C)n1-2 [NCGC00250412-19] | -50.6

SMILES | excess over highest single agent
C[C@H](c1ccc(F)cc1CCCC(=O)O)N(c1cc(F)ccc1F)S(=O)(=O)c1ccc(Cl)cc1 + Cc1sc2c(c1C)C(c1ccc(Cl)cc1)=N[C@@H](CC(=O)OC(C)(C)C)c1nnc(C)n1-2 [NCGC00250412-19] | 86.1
Cc1c(CCOc2ccc(C(=O)O)cc2)c2cc(Cl)ccc2n1C(c1ccccc1)c1ccccc1 + Cc1sc2c(c1C)C(c1ccc(Cl)cc1)=N[C@@H](CC(=O)OC(C)(C)C)c1nnc(C)n1-2 [NCGC00250412-19] | -12
S=C(NCc1ccc2c(c1)OCO2)N1CCN(c2ncnc3c2oc2ccccc23)CC1 + Cc1sc2c(c1C)C(c1ccc(Cl)cc1)=N[C@@H](CC(=O)OC(C)(C)C)c1nnc(C)n1-2 [NCGC00250412-19] | -77.4
OCCN1C[C@H](O)[C@@H](O)[C@H](O)[C@H]1CO + Cc1sc2c(c1C)C(c1ccc(Cl)cc1)=N[C@@H](CC(=O)OC(C)(C)C)c1nnc(C)n1-2 [NCGC00250412-19] | -198
CC(C)C(=O)Nc1ccc([N+](=O)[O-])c(C(F)(F)F)c1 + Cc1sc2c(c1C)C(c1ccc(Cl)cc1)=N[C@@H](CC(=O)OC(C)(C)C)c1nnc(C)n1-2 [NCGC00250412-19] | 20
Cn1cnc([N+](=O)[O-])c1Sc1ncnc2[nH]cnc12 + Cc1sc2c(c1C)C(c1ccc(Cl)cc1)=N[C@@H](CC(=O)OC(C)(C)C)c1nnc(C)n1-2 [NCGC00250412-19] | -196
CC(=O)Oc1cc2c(s1)CCN(C(C(=O)C1CC1)c1ccccc1F)C2 (centres undefined) + Cc1sc2c(c1C)C(c1ccc(Cl)cc1)=N[C@@H](CC(=O)OC(C)(C)C)c1nnc(C)n1-2 [NCGC00250412-19] | -100
CCN(CC)CCCCNc1nc2cc(Cl)c(Cl)cc2nc1-c1ccc(-c2cccs2)s1 + Cc1sc2c(c1C)C(c1ccc(Cl)cc1)=N[C@@H](CC(=O)OC(C)(C)C)c1nnc(C)n1-2 [NCGC00250412-19] | -189
O=C(O)C1=N[C@H](C(=O)O)CC(/C=C/N2c3cc(O)c(O[C@@H]4O[C@H](CO)[C@@H](O)[C@H](O)[C@H]4O)cc3C[C@H]2C(=O)O)=C1 + Cc1sc2c(c1C)C(c1ccc(Cl)cc1)=N[C@@H](CC(=O)OC(C)(C)C)c1nnc(C)n1-2 [NCGC00250412-19] | -53.2
CC(C)CN(C[C@@H](O)[C@H](Cc1ccccc1)NC(=O)O[C@H]1CO[C@H]2OCC[C@H]21)S(=O)(=O)c1ccc(N)cc1 + Cc1sc2c(c1C)C(c1ccc(Cl)cc1)=N[C@@H](CC(=O)OC(C)(C)C)c1nnc(C)n1-2 [NCGC00250412-19] | -111
COc1cc(/C=C/C(=O)CC(=O)/C=C/c2ccc(O)c(OC)c2)ccc1O + Cc1sc2c(c1C)C(c1ccc(Cl)cc1)=N[C@@H](CC(=O)OC(C)(C)C)c1nnc(C)n1-2 [NCGC00250412-19] | -26.7
O=C(O)CSCC(=O)NC1CCSC1=O (centres undefined) + Cc1sc2c(c1C)C(c1ccc(Cl)cc1)=N[C@@H](CC(=O)OC(C)(C)C)c1nnc(C)n1-2 [NCGC00250412-19] | -73.4
Cc1cc2c(F)c(Oc3ncnn4cc(OC[C@@H](C)O)c(C)c34)ccc2[nH]1 + Cc1sc2c(c1C)C(c1ccc(Cl)cc1)=N[C@@H](CC(=O)OC(C)(C)C)c1nnc(C)n1-2 [NCGC00250412-19] | 51
COC(=O)c1ccc2c(C(=Nc3ccc(N(C)C(=O)CN4CCN(C)CC4)cc3)c3ccccc3)c(O)[nH]c2c1 + Cc1sc2c(c1C)C(c1ccc(Cl)cc1)=N[C@@H](CC(=O)OC(C)(C)C)c1nnc(C)n1-2 [NCGC00250412-19] | -229
Cc1cc(O)c2c(c1)C(=O)c1cc(O)cc(O)c1C2=O + Cc1sc2c(c1C)C(c1ccc(Cl)cc1)=N[C@@H](CC(=O)OC(C)(C)C)c1nnc(C)n1-2 [NCGC00250412-19] | -61.2
O=C1NC(=O)/C(=C/c2cccc(C(F)(F)F)c2)S1 + Cc1sc2c(c1C)C(c1ccc(Cl)cc1)=N[C@@H](CC(=O)OC(C)(C)C)c1nnc(C)n1-2 [NCGC00250412-19] | 75.6
Cn1cc(-c2ccc3nnc(Sc4ccc5ncccc5c4)n3n2)cn1 + Cc1sc2c(c1C)C(c1ccc(Cl)cc1)=N[C@@H](CC(=O)OC(C)(C)C)c1nnc(C)n1-2 [NCGC00250412-19] | -80.8
C=C[C@H]1CN2CCC1C[C@H]2[C@H](O)c1ccnc2ccc(OC)cc12 (some centres undefined) + Cc1sc2c(c1C)C(c1ccc(Cl)cc1)=N[C@@H](CC(=O)OC(C)(C)C)c1nnc(C)n1-2 [NCGC00250412-19] | -222
Clc1ccc(Nc2nnc(Cc3ccncc3)c3ccccc23)cc1 + Cc1sc2c(c1C)C(c1ccc(Cl)cc1)=N[C@@H](CC(=O)OC(C)(C)C)c1nnc(C)n1-2 [NCGC00250412-19] | -38.8

Single values from the entries so far:
Cn1cc(-c2ccc3nnc(Sc4ccc5ncccc5c4)n3n2)cn1 + Cc1sc2c(c1C)C(c1ccc(Cl)cc1)=N[C@@H](CC(=O)OC(C)(C)C)c1nnc(C)n1-2 [NCGC00250412-19] – excess over highest single agent: -80.8
CC(=O)Oc1cc2c(s1)CCN(C(C(=O)C1CC1)c1ccccc1F)C2 (centres undefined) + Cc1sc2c(c1C)C(c1ccc(Cl)cc1)=N[C@@H](CC(=O)OC(C)(C)C)c1nnc(C)n1-2 [NCGC00250412-19] – excess over highest single agent: -100
